Measured data: PubChem BioAssay AID504786 (Drosophila RNAi Screening Center, 2011)
Assay: 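Knock-downs reducing HIF reporter induction by the iron chelator DFO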 (primary screen). Cells: Drosophila S2 cells with a stable HIF luciferase reporter. Knock-down reagent: long dsRNA against Drosophila genes, about 0.2 µg dsRNA per well of a 384-well plate. Timing: three days of knock-down, then 20 h of DFO before reading. Challenge: desferrioxamine (DFO) at 100 µM, an iron chelator that mimics hypoxia, for 20 h. Measured: 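HIF reporter luminescence in cells given 100 µM DFO for 20 h, using the mouse ldh-a hypoxia-response element, scored as per-plate z-scores; higher means greater loss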. Direction: z-score: higher = stronger loss of HIF reporter signal.
The screen tested about 21,000 reagents; this is a random part of those that have a named target and a result. 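Primary screen; positive scores mean lost reporter signal, so the sign may be inverted from the usual convention.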 Reagents against one gene are numbered here. Further read-outs or replicates are left out here.

CG15876 — z-score, replicate 1 = -0.4
pch2 — z-score, replicate 1 = -0.3
CG33777 — z-score, replicate 1 = -0.2
CG11200 — z-score, replicate 1 = -0.2
Girdin — z-score, replicate 1 = -0.2
CREG — z-score, replicate 1 = -0.5
CG10435 — z-score, replicate 1 = -0.4
teq #1 — z-score, replicate 1 = 0
teq #2 — z-score, replicate 1 = 0
teq #3 — z-score, replicate 1 = -0.3
CG43740 — z-score, replicate 1 = -0.3
mthl8 #1 — z-score, replicate 1 = 0
mthl8 #2 — z-score, replicate 1 = -0.4
twf — z-score, replicate 1 = -0.4
Tsp97E — z-score, replicate 1 = -0.3
CG42240 — z-score, replicate 1 = -0.2
CG9837 — z-score, replicate 1 = -0.3
Rab4 — z-score, replicate 1 = -0.2
CG32081 — z-score, replicate 1 = -0.3
CG7239 — z-score, replicate 1 = 0
CheB42c — z-score, replicate 1 = -0.3
Poxm — z-score, replicate 1 = -0.4
krimp — z-score, replicate 1 = -0.3
CG15153 — z-score, replicate 1 = -0.2
CG1764 — z-score, replicate 1 = -0.2
wtrw #1 — z-score, replicate 1 = -0.3
wtrw #2 — z-score, replicate 1 = -0.2

A stretch taken from the entries so far:
Tsp97E — z-score, replicate 1 = -0.3
CG42240 — z-score, replicate 1 = -0.2
